Test [1] deals with T1, LgBiT-tagged HHLA2 (UniProt Q9UM44).
T1 sequence: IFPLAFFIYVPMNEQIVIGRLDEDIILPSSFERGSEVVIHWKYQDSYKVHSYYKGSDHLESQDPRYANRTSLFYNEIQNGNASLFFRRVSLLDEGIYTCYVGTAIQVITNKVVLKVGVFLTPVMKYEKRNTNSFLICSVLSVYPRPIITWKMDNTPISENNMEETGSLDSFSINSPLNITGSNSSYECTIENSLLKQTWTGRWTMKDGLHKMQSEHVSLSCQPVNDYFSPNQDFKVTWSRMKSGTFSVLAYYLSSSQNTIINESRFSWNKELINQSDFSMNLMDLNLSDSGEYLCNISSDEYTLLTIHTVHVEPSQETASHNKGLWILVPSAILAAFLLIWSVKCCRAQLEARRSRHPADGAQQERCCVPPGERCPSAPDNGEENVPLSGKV
Briefly: split reporter; split-luciferase complementation; indicated amounts of recombinant SmBiT-tagged ExD protein added to HEK293 cells expressing the LgBiT-tagged partner; luminescence measured; only the binder purified.

Sequences of proteins named here, by UniProt entry; tags and fusion partners are left off. A change or cut given only in a name is not applied to a line headed by its entry. Residues count along the entry.
UniProt P08581: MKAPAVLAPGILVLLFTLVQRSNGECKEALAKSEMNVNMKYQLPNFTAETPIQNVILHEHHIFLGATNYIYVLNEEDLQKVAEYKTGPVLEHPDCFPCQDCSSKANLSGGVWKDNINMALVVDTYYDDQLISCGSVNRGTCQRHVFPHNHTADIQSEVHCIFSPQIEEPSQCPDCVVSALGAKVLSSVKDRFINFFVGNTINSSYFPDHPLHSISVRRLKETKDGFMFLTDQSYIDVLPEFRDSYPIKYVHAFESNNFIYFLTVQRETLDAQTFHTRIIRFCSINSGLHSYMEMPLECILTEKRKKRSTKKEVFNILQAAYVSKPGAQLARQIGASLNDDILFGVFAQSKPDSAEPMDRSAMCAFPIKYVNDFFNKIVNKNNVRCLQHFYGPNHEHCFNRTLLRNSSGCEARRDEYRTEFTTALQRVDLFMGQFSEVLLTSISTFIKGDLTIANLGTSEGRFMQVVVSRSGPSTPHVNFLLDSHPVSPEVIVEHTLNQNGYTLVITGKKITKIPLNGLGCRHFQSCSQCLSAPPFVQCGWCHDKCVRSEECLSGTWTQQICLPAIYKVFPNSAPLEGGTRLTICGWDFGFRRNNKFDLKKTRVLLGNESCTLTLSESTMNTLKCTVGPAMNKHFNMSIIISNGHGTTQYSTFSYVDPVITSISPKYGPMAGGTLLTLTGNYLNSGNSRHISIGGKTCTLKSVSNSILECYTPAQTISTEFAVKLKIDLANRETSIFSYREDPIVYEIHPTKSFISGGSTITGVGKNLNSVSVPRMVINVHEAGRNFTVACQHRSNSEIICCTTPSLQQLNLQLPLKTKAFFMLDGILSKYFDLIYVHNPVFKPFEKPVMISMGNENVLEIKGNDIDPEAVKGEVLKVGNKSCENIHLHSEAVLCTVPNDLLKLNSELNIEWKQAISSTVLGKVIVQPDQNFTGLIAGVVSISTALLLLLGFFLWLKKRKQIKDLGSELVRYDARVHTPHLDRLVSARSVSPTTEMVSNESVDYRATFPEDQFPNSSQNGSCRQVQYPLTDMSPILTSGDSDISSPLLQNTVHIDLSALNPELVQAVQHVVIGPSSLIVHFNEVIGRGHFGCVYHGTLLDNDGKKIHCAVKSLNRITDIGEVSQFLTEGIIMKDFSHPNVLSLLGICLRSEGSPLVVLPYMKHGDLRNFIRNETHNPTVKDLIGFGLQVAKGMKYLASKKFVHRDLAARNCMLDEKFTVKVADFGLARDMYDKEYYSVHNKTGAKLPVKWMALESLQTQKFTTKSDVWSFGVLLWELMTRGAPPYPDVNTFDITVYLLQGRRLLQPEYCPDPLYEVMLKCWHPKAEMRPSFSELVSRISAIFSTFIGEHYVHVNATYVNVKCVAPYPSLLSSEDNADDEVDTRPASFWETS
c-Met (human (endogenous in HepG2)): residues 25-1390 of P08581

Test [2] addresses T2, HHLA2-HA (UniProt Q9UM44).
T2 sequence (chain, glycosylated (N-linked; sites not named)): T1 sequence
Description: co-IP; HepG2 and Hep3B cells with or without HHLA2 overexpression; anti-HA antibody and reciprocal; also after Tunicamycin treatment of HepG2 cells.

The target in test [3] is c-Met (human (endogenous in HepG2)) (UniProt P08581). The test is described as above.

Results are given in words; binding and its absence hold for the method and conditions named. In cells and extracts the contact can be indirect. Some results given as binding are weak or reduced against the parent protein; the word gives no strength. Where a sequence is shown, tags or fusion partners need not be part of it.

As for “c-MET-ExD-SmBit-6His (from UniProt P08581 25-932) (domain or fragment)”, the binding result in test [1] is on record as “binds”.
Take “c-Met (from UniProt P08581 25-1390) (receptor)”: the binding result in test [2] is on record as “binds”.

B1: HHLA2-HA (protein, UniProt Q9UM44 23-414)
chain: T1 sequence
modifications: glycosylated (N-linked; sites not named)
With B1, the binding result in test [3] is listed as “binds”.

These data come from publication PMC12090556.
